Test results as given in patent US20200325476.

Biological target: alpha-synuclein (monomer) (UniProt P37840)
Test: inhibition of the protein
Conditions: mean aggregate size by TEM, control without aptamer 242±220 nm, PBS, 37 C, purified recombinant protein, single-stranded DNA, dose not given here

ATAGTCCCATCATTCATTGAACGGAATGGCGCGGTGACCGGATAGTGTAGATATTAGCAAGTGTCA [a-syn-4 (LTMull)]
functional effect of the aptamer: active

ATAGTCCCATCATTCATTGTAAGGAAACGCTACGGGGTGGGTACGGCAAGATATTAGCAAGTGTCA [a-syn-1 (1LBwAAjJ)]
functional effect of the aptamer (no fibrils seen under MJFF protocol): active

ATAGTCCCATCATTCATTGTATGAGATGGGGTGGTGACGTCAGCATGGAGATATTAGCAAGTGTCA [a-syn-3 (GdJUhe)]
functional effect of the aptamer: active

ATAGTCCCATCATTCATTGTATGATACAGTGAGGTGGCAGATGCATGCAGATATTAGCAAGTGTCA [a-syn-5 (JueRc)]
functional effect of the aptamer: active

ATAGTCCCATCATTCATTGTATGGTACGGCGCGGTGGCGGGTGCGGGGAGATATTAGCAAGTGTCA [a-syn-2 (1LBiGJFJC)]
functional effect of the aptamer: active
